Laboratory results: PubChem BioAssay AID652243 (Drosophila RNAi Screening Center, 2013)
Screen: 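Knock-downs that decrease or increase androgen receptor reporter signal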 (primary screen). System: Drosophila S2R+ cells. Reagents: long dsRNA against Drosophila genes. Timing: 72 h (48 h, then 24 h hormone). Challenge: synthetic androgen R1881 at 10 nM for 24 h. Measured: 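Per-well raw luminescence of the androgen-driven firefly reporter and of the Renilla control, two replicates each, without normalisation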. Direction: firefly reporter light: higher = more light from androgen-responsive reporter; Renilla control light: higher = more constitutive control signal (cell number, transfection). Call rule: 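Hit when the log firefly-to-Renilla ratio dropped or increased by a fixed fold versus the mean of GFP or LacZ controls across duplicate plates; lowering cut given as 1.5 and as 3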. Calls: active = hit: reporter lowered or raised; inactive = no hit.
The screen tested about 24,000 reagents; shown is a random part of those with a known target gene and a result. Over the whole deposit, 246 (1%) were called active. 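Plates not normalised; calls are printed but the firefly/Renilla ratio behind them is not deposited; fold cut for lowering reported inconsistently.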 Raw values are not corrected between plates. Reagents against one gene are numbered here. The record does not give: the amount of reagent.

{"gene knocked down": "SrpRbeta (Signal recognition particle receptor beta)", "reagent no.": 1, "firefly reporter light, replicate 1": 6.63e5, "firefly reporter light, replicate 2": 6.48e5, "Renilla control light, replicate 1": 2.40e6, "Renilla control light, replicate 2": 2.86e6, "call": "inactive"}
{"gene knocked down": "SrpRbeta (Signal recognition particle receptor beta)", "reagent no.": 2, "firefly reporter light, replicate 1": 7.05e5, "firefly reporter light, replicate 2": 3.74e5, "Renilla control light, replicate 1": 3.73e6, "Renilla control light, replicate 2": 1.39e6, "call": "inactive"}
{"gene knocked down": "TTLL12 (Tubulin tyrosine ligase-like 12)", "reagent no.": 1, "firefly reporter light, replicate 1": 2.34e5, "firefly reporter light, replicate 2": 2.46e5, "Renilla control light, replicate 1": 1.35e6, "Renilla control light, replicate 2": 1.42e6, "call": "inactive"}
{"gene knocked down": "CG33764", "reagent no.": 1, "firefly reporter light, replicate 1": 8.39e5, "firefly reporter light, replicate 2": 8.98e5, "Renilla control light, replicate 1": 2.27e6, "Renilla control light, replicate 2": 2.36e6, "call": "inactive"}
{"gene knocked down": "CG30088", "reagent no.": 1, "firefly reporter light, replicate 1": 5.34e5, "firefly reporter light, replicate 2": 4.96e5, "Renilla control light, replicate 1": 1.95e6, "Renilla control light, replicate 2": 2.07e6, "call": "inactive"}
{"gene knocked down": "CG30088", "reagent no.": 2, "firefly reporter light, replicate 1": 6.67e5, "firefly reporter light, replicate 2": 7.01e5, "Renilla control light, replicate 1": 9.29e5, "Renilla control light, replicate 2": 1.05e6, "call": "inactive"}
{"gene knocked down": "CG32544", "reagent no.": 1, "firefly reporter light, replicate 1": 1.18e5, "firefly reporter light, replicate 2": 50340, "Renilla control light, replicate 1": 4.46e5, "Renilla control light, replicate 2": 2.00e5, "call": "inactive"}
{"gene knocked down": "CG32544", "reagent no.": 2, "firefly reporter light, replicate 1": 8.18e5, "firefly reporter light, replicate 2": 7.55e5, "Renilla control light, replicate 1": 5.68e5, "Renilla control light, replicate 2": 6.92e5, "call": "inactive"}
{"gene knocked down": "Ir68a (Ionotropic receptor 68a)", "reagent no.": 1, "firefly reporter light, replicate 1": 3.32e5, "firefly reporter light, replicate 2": 2.58e5, "Renilla control light, replicate 1": 2.55e6, "Renilla control light, replicate 2": 2.17e6, "call": "inactive"}
{"gene knocked down": "GstD6 (Glutathione S transferase D6)", "reagent no.": 1, "firefly reporter light, replicate 1": 1.42e5, "firefly reporter light, replicate 2": 1.47e5, "Renilla control light, replicate 1": 2.36e6, "Renilla control light, replicate 2": 2.29e6, "call": "inactive"}
{"gene knocked down": "GstD6 (Glutathione S transferase D6)", "reagent no.": 2, "firefly reporter light, replicate 1": 3.79e5, "firefly reporter light, replicate 2": 2.94e5, "Renilla control light, replicate 1": 5.34e5, "Renilla control light, replicate 2": 3.47e5, "call": "inactive"}
{"gene knocked down": "CG11099", "reagent no.": 1, "firefly reporter light, replicate 1": 1.37e5, "firefly reporter light, replicate 2": 1.36e5, "Renilla control light, replicate 1": 1.48e6, "Renilla control light, replicate 2": 1.51e6, "call": "inactive"}
{"gene knocked down": "Kcmf1 (Potassium channel modulatory factor 1)", "reagent no.": 1, "firefly reporter light, replicate 1": 40047, "firefly reporter light, replicate 2": 43812, "Renilla control light, replicate 1": 1.92e5, "Renilla control light, replicate 2": 2.31e5, "call": "inactive"}
{"gene knocked down": "Kcmf1 (Potassium channel modulatory factor 1)", "reagent no.": 2, "firefly reporter light, replicate 1": 5.09e5, "firefly reporter light, replicate 2": 4.08e5, "Renilla control light, replicate 1": 1.02e6, "Renilla control light, replicate 2": 8.88e5, "call": "inactive"}

Laid out differently: 2 of the entries above.
CG32544 #1
- firefly reporter light, replicate 1: 1.18e5
- firefly reporter light, replicate 2: 50340
- Renilla control light, replicate 1: 4.46e5
- Renilla control light, replicate 2: 2.00e5
- call: inactive

CG32544 #2
- firefly reporter light, replicate 1: 8.18e5
- firefly reporter light, replicate 2: 7.55e5
- Renilla control light, replicate 1: 5.68e5
- Renilla control light, replicate 2: 6.92e5
- call: inactive
